Measurements from article PMC8429772.
These are yes or no findings as the source states them, for the method shown. For part of these data: In cells and extracts the contact can be indirect. Some entries that bind do so weakly or less than the wild type. For part of these data: Where a sequence is shown, tags or fusion partners need not be part of it.

How the values were obtained:
[1] = molecular target: T1, Scd2 (two-hybrid bait, scd2+ ORF in pAS2) (S. pombe) (UniProt P40996); assay: two-hybrid; baits in pAS2, Eng2 prey in pACT2, S. cerevisiae AH109; interaction assessed by growth on YNB plates without histidine and adenine
T1 sequence: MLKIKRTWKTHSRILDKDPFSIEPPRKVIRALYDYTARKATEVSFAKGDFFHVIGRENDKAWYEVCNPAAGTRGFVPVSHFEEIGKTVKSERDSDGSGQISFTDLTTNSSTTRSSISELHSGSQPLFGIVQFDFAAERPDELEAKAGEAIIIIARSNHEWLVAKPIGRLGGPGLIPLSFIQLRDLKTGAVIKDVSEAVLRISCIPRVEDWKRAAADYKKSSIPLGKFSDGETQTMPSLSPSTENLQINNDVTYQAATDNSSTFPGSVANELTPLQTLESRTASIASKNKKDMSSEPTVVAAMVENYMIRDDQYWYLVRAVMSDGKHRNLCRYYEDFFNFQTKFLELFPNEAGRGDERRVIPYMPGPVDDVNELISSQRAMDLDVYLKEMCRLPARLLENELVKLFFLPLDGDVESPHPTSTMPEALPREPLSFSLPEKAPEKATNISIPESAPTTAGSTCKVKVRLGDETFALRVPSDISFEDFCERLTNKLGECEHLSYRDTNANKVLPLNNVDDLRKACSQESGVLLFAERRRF

[2] = molecular target: T2, Pob1 (two-hybrid bait, pob1+ ORF in pAS2) (S. pombe) (UniProt O74653); assay: as above
T2 sequence: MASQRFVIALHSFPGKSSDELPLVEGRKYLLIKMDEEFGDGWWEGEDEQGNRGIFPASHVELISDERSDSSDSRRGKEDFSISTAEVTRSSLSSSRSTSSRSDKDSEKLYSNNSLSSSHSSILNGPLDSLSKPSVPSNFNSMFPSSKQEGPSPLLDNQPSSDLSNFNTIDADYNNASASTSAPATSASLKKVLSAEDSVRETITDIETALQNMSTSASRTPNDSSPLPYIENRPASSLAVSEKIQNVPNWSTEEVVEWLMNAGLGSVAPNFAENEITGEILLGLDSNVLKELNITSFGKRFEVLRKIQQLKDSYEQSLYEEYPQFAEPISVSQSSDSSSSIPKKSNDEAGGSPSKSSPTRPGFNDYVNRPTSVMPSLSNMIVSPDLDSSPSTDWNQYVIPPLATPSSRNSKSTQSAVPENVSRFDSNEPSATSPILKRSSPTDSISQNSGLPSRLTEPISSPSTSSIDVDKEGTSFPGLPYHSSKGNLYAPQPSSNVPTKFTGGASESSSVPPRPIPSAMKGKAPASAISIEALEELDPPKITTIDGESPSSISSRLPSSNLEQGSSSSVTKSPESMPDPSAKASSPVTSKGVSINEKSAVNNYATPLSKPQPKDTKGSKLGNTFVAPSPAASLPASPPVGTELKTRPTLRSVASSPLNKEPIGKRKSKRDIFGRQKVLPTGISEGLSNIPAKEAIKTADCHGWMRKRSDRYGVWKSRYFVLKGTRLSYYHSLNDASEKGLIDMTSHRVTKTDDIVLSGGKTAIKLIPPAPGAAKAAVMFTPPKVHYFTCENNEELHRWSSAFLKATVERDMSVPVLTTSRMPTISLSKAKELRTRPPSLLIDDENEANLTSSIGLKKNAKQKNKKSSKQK

[3] = molecular target: T3, Scd2-GFP (S. pombe) (UniProt P40996); assay: co-IP; S. pombe cells crosslinked with 1% formaldehyde for 10 min at 30 °C; extracts in 25 mM Tris HCl pH 7.5, 150 mM NaCl, 0.5% SDS, 1% NP40; GFP-Trap beads 1 h at 4 °C; blots with anti-GFP and anti-HA
T3 sequence: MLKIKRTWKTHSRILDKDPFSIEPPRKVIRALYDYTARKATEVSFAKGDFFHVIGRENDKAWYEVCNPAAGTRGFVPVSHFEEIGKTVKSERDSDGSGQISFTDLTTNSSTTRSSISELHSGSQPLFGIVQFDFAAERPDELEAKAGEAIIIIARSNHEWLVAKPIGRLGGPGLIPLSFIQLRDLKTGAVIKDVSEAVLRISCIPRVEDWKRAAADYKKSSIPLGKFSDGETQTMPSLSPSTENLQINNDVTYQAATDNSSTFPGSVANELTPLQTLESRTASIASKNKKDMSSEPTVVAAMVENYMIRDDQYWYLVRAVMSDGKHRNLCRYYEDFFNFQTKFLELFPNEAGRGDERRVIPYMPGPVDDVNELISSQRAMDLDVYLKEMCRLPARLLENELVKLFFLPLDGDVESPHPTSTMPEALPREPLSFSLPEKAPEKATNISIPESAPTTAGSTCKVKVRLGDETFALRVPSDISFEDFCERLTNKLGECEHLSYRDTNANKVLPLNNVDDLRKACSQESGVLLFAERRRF

B1: Eng2 (two-hybrid prey, eng2+ ORF in pACT2) (protein, UniProt Q09850 1-706)
chain: MDVLVPIYTGPINPVFPSRAHPSPPLGLTSNLFPIQTNKFYGNLYIGTRHNPSWSHPYSVTWLNGSSYYGLAISHIDDSQRVFGPDPESVPCQYYFNPAGLYSIIISAREFASGNLLSLDQSRHFSIQATLSATTSGSGTIILPIVAGMGFVSGYYTNLTPVFNSSILFSSITKINFSRGYKYRIQLTDGKIWFLYAFPTSSSSTFNLTLASNSQLTTSTKFTGLIQICKVPNESVNNSYPDTIYDASAGVYTTSISLSAQVSGTTGEYWFRFATAGYTNLNPLMFALPHHMQSFGSDTQAYKTGLGLASTTMGIMFAYATKTWHLIEKNLPTQVGFLPIPWNGGSNTYSPTALAAIRAACATDINFDVVNASNLDSMYTSGKIVAMYAQVCLVASRILGDSTLTNTGLTKLKQAMARFTTNTQMYPLVYDTTYKGIISTAGYSSPLADYGNTYYNDHHFHWGYHIYACAVIGLLDPSWLVNDNIRYVNALLRDSANPSESDTYFAMFRNFDWFVGHSWATGIFESGDGKDEESTSEDFNFLYATKLWGMVRNDTVLINRANLMLAVLKNSLNTYIYMTPTTSVQPSQILGNYVTGITFMNKVDYATYFSAEEYCKQGIHMIPTTPISGYLRSPSYVQQDWNAKIAPIINTFSNNWTGILWSNYAIYDPKTAYNTFAASTFTADKIDNGASKTWYLAMAAGMGGSP
Which results are given for B1?
binding [1]: binds; binding [2]: no binding

B2: Eng2-HA (protein, UniProt Q09850 1-706)
chain: MDVLVPIYTGPINPVFPSRAHPSPPLGLTSNLFPIQTNKFYGNLYIGTRHNPSWSHPYSVTWLNGSSYYGLAISHIDDSQRVFGPDPESVPCQYYFNPAGLYSIIISAREFASGNLLSLDQSRHFSIQATLSATTSGSGTIILPIVAGMGFVSGYYTNLTPVFNSSILFSSITKINFSRGYKYRIQLTDGKIWFLYAFPTSSSSTFNLTLASNSQLTTSTKFTGLIQICKVPNESVNNSYPDTIYDASAGVYTTSISLSAQVSGTTGEYWFRFATAGYTNLNPLMFALPHHMQSFGSDTQAYKTGLGLASTTMGIMFAYATKTWHLIEKNLPTQVGFLPIPWNGGSNTYSPTALAAIRAACATDINFDVVNASNLDSMYTSGKIVAMYAQVCLVASRILGDSTLTNTGLTKLKQAMARFTTNTQMYPLVYDTTYKGIISTAGYSSPLADYGNTYYNDHHFHWGYHIYACAVIGLLDPSWLVNDNIRYVNALLRDSANPSESDTYFAMFRNFDWFVGHSWATGIFESGDGKDEESTSEDFNFLYATKLWGMVRNDTVLINRANLMLAVLKNSLNTYIYMTPTTSVQPSQILGNYVTGITFMNKVDYATYFSAEEYCKQGIHMIPTTPISGYLRSPSYVQQDWNAKIAPIINTFSNNWTGILWSNYAIYDPKTAYNTFAASTFTADKIDNGASKTWYLAMAAGMGGSP
Which binding [3] does the source give for B2 here?
Its binding is “binds”.
